According to PMC8347134, “Preparation of Antiproliferative Terpene-Alkaloid Hybrids by Free Radical-Mediated Modification of ent-Kauranic Derivatives” (Molecules, 2021):

Test system: hTERT RPE-1
Test: Parallel cytotoxicity assay on non-cancerous retina cells
Type: cell-based
Conditions: hTERT-RPE1, 72 h, read-out: IC50 hTERT RPE-1
Procedure: A parallel cytotoxicity assay was performed on non-cancerous retina cells (hTERT RPE-1) in order to estimate the selectivity of the investigated compounds towards tumor cells. The inhibition of cell proliferation was calculated as IC50 by interpolation based on the semi-log dose response.
All cell lines were cultured as recommended by the suppliers. Culture media were purchased from Gibco Life Technologies, USA, and supplemented with 10% fetal bovine serum (HyClone, GE Healthcare Life Sciences, Logan, UT, USA). […] All stock solutions were prepared in DMSO.
After overnight incubation, cells were treated with the test compounds at seven different concentrations ranging from 100 to 6.4 × 10^−3 µM. […] The plates were incubated at 37 °C and monitored for 72 h in an IncuCyte® device (Essen BioScience Inc., Ann Arbor, MI, USA) for real-time imaging. Images were taken every 3 h, with one field imaged per well under 10× magnification. Cell growth was then quantified based on the percent cellular confluence as analysed by the IncuCyte® image analysis software and used to calculate IC50 values by linear interpolation. All tests have been performed in duplicate and the average values have been calculated.

CN[C@@H]1C[C@H]2O[C@@](C)([C@@H]1OC)n1c3ccccc3c3c4c(c5c6ccccc6n2c5c31)C(=O)NC4 [SP, staurosporine, reference compound]
IC50: 1 nM
